Some of the results follow.
target: OsWRKY34 (Oryza sativa, UniProt Q0JBA9 1-250); experiment: protein-binding microarray (RPBM); PBS, 2% BSA, 51.3 ng/ul salmon testes DNA, 50 uM zinc acetate, 200 nM TF, 25 C, 1 h; high values mean tight binding; conditions: protein: recombinant; tags: N-terminal polyhistidine and DsRed monomer fusion (pET32a); label: CyDye5-dUTP incorporated in the synthesized complementary strand; 3' TTTTT single-stranded linker to array surface; dsDNA, one strand shown
Procedure, shortened: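 The binding signal is fluorescence intensity per feature, in arbitrary units, read on an Axon 4000B scanner. Polyhistidine- and DsRed-tagged transcription factors (N-terminal fusions) from E. coli BL21-CodonPlus were purified on Ni–NTA and applied at 200 nM for 1 h at 25 °C to a double-stranded, BSA-blocked custom Agilent array in buffer with 50 µM zinc acetate.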

Protein sequences, listed by entry. Tags and fused reporters are not part of them.
UniProt Q0JBA9, entry or part of it: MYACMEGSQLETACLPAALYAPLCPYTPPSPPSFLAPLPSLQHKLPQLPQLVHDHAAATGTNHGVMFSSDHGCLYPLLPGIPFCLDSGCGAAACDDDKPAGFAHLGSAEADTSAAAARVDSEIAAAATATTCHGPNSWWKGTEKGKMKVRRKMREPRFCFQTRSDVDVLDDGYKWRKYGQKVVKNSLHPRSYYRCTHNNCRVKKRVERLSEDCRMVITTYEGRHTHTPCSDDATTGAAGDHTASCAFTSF

Sequence	binding signal
CCGCATTTAGCATCCAACCACCCTGCATCTGCGGCGTGCACGGAGTCACCTAGTGCAG	8380 fluorescence intensity (a.u.)
GGCATTCTTTTTCTGCATCATCATCGTCGTCTTCGTCTTCCGGAGTCACCTAGTGCAG	11500 fluorescence intensity (a.u.)
GCTGTGCTGCTTCCCTAGCTCCTCGGTTGGATCAAAGAGACGGAGTCACCTAGTGCAG	8220 fluorescence intensity (a.u.)
TATGAAGGTTTCTGATCATGTTTTCCATTTTTCCGTTAATCGGAGTCACCTAGTGCAG	8670 fluorescence intensity (a.u.)
AGTTGTCAAAAGTGTCTATATTTAGTTTGTTGCTAAATTTCGGAGTCACCTAGTGCAG	8640 fluorescence intensity (a.u.)
AATCACACTAAAAGTTTTATTCATGTTTTATCATCTAAAACGGAGTCACCTAGTGCAG	8390 fluorescence intensity (a.u.)
GCTGAACGCACACCCTGGGCCGTACATGGGCCGCTTGTCACGGAGTCACCTAGTGCAG	8640 fluorescence intensity (a.u.)
CTTCGTATATATATGTATATAAAGTTGGTATATTTACATACGGAGTCACCTAGTGCAG	8530 fluorescence intensity (a.u.)
AGGTCCCAAATCACCACAGTCCTTTCAGAATCCTACGTGGCGGAGTCACCTAGTGCAG	8180 fluorescence intensity (a.u.)
AATTCGATGGTTTCCATCACCGTCCTCACACACAAATTTCCGGAGTCACCTAGTGCAG	8240 fluorescence intensity (a.u.)
AAAATTCAAGATCTTCACCCTCAGTCACCTGCCCTGCATTCGGAGTCACCTAGTGCAG	8810 fluorescence intensity (a.u.)
GGCGAGCGCGTCGTGGAGGGCGGGGAGGGAGTCGGGCTGGCGGAGTCACCTAGTGCAG	14400 fluorescence intensity (a.u.)
CCTTACCTTGGCAAGCTAGGCTACTCCTGTCATCCATCTTCGGAGTCACCTAGTGCAG	8540 fluorescence intensity (a.u.)
ATTTCTTATTCTTATCCACACTACATGTTATTGAATAAATCGGAGTCACCTAGTGCAG	8140 fluorescence intensity (a.u.)
ATCTGACCATCTTTATATCACGTTGGGCCCCATGCTTCTCCGGAGTCACCTAGTGCAG	11300 fluorescence intensity (a.u.)
ACCAAACATCCACACTCTACCGCACCTCCTTACGCTCACCCGGAGTCACCTAGTGCAG	9900 fluorescence intensity (a.u.)
ATAGCTACCTACTATGCCGCGTAACTATTATGTGCACCGTCGGAGTCACCTAGTGCAG	8700 fluorescence intensity (a.u.)
GGTATTGTGTTTGGTTGTTGCTTGCTAGCTAGCCGCTGGTCGGAGTCACCTAGTGCAG	8880 fluorescence intensity (a.u.)
GGGCTTCTTTTGTGAATTTCTTCCCTTGCAGTCTCCCTCGCGGAGTCACCTAGTGCAG	12900 fluorescence intensity (a.u.)
TTTTTTTTTTCTGTTGGCTCATTGGACAATTACTTGCAAGCGGAGTCACCTAGTGCAG	10600 fluorescence intensity (a.u.)
TTTATAACATTTATTTCCATATATAAGTTATGCTTACATTCGGAGTCACCTAGTGCAG	8440 fluorescence intensity (a.u.)
ACCCCGCAGCCTCACCAACTGCGGCAACCTCACCGTCTTGCGGAGTCACCTAGTGCAG	9140 fluorescence intensity (a.u.)
AGTATTTGGTCGGTGGGTGCTCGCACTGCCCCTGGCAGGCCGGAGTCACCTAGTGCAG	8400 fluorescence intensity (a.u.)
CCTATAATATCACGGCTGAGGCATTTCTTTAGGTACAAAGCGGAGTCACCTAGTGCAG	8050 fluorescence intensity (a.u.)
CATACGAACACATTGTCCCTTTCTTCGTTTATAATTCGAGCGGAGTCACCTAGTGCAG	8050 fluorescence intensity (a.u.)
GTGTTTTCTTTTCCGCGTGCCCTTTTTTATGTTACGGATTCGGAGTCACCTAGTGCAG	13200 fluorescence intensity (a.u.)
CTTTTTATCTCAAATTTGAAAACTTTCAACTTGGATTTGACGGAGTCACCTAGTGCAG	8520 fluorescence intensity (a.u.)

3 records drawn at random from the list so far, as already listed:
Sequence	binding signal
TTTATAACATTTATTTCCATATATAAGTTATGCTTACATTCGGAGTCACCTAGTGCAG	8440 fluorescence intensity (a.u.)
CCGCATTTAGCATCCAACCACCCTGCATCTGCGGCGTGCACGGAGTCACCTAGTGCAG	8380 fluorescence intensity (a.u.)
GCTGTGCTGCTTCCCTAGCTCCTCGGTTGGATCAAAGAGACGGAGTCACCTAGTGCAG	8220 fluorescence intensity (a.u.)

Next entries

Sequence	binding signal
AGGCGCTATCCGGTTGACCAAACCAGCCTACCAACCCGTCCGGAGTCACCTAGTGCAG	8350 fluorescence intensity (a.u.)
GTTTCCATTTCTGTTATTTTTTATTTCAAATTTCATTCTTCGGAGTCACCTAGTGCAG	11800 fluorescence intensity (a.u.)
TCCGATTTGTACCGATATGTTTTCATCCGTATTGTTCCGCCGGAGTCACCTAGTGCAG	11000 fluorescence intensity (a.u.)
CGCCGCTCGTCGTGGTGGGTAGGGGATTCACTGATTTGCTCGGAGTCACCTAGTGCAG	16000 fluorescence intensity (a.u.)
CCATAGCGTCTTCCGTCGAGGTCATGACCGTCTTCAATCTCGGAGTCACCTAGTGCAG	8500 fluorescence intensity (a.u.)
GCCCGCTCTGGACCAGATTGCCCTATTTCTCTCCACCACACGGAGTCACCTAGTGCAG	9180 fluorescence intensity (a.u.)
GGTTCTCTTTTCTTTTCTTTTCTTTTCTCCTGGAGTTTTTCGGAGTCACCTAGTGCAG	9120 fluorescence intensity (a.u.)
TTGCTGCCTTACCATATCCTACTTTATTGCAACCAATTTTCGGAGTCACCTAGTGCAG	13400 fluorescence intensity (a.u.)
ACCAAGCCACGGACTCCTCTAATTCTCTCTCTTGCTTTCTCGGAGTCACCTAGTGCAG	11700 fluorescence intensity (a.u.)
ACACATTTTGCTAGATCTGTAGTTGTAGACACGCGATATTCGGAGTCACCTAGTGCAG	8740 fluorescence intensity (a.u.)
GCGGCGAATTCGCCTCTTTCCTTCCGCTTCCGCCTACCTCCGGAGTCACCTAGTGCAG	9380 fluorescence intensity (a.u.)
GTTTACTTAGATCGAGTTGTTGGGTTTGACAGGTCTGAAACGGAGTCACCTAGTGCAG	11500 fluorescence intensity (a.u.)
TTCAACGACGCGCGCGTTCTCACACCTTCTTCCACGCTGACGGAGTCACCTAGTGCAG	9290 fluorescence intensity (a.u.)
AAATGGTGTGTGTAGTGTTCTTCTCCTCCTTCTTGCGGGGCGGAGTCACCTAGTGCAG	9870 fluorescence intensity (a.u.)
CTAATCATGCAGACACCATATATTAATTCATACTCTTCTTCGGAGTCACCTAGTGCAG	8080 fluorescence intensity (a.u.)
CGTGTCCCGGCACCTCTTGATCGCCATGGTCGTCGACGACCGGAGTCACCTAGTGCAG	9660 fluorescence intensity (a.u.)
GGCAGCCACCCCGCTTGCATCTTCCCTCTACCTACCTACCCGGAGTCACCTAGTGCAG	8060 fluorescence intensity (a.u.)
TTATTGGTCAAGGGAATATCTATTATTAAAAAATGAGTGTCGGAGTCACCTAGTGCAG	10700 fluorescence intensity (a.u.)
TTCGTGGATTCAAAAGCTTTCACTTGGTACTTCTAATTCTCGGAGTCACCTAGTGCAG	8580 fluorescence intensity (a.u.)
CAAAAGCATGTGTGATTTGTTCAGCTGTTCTGTTCGTGTCCGGAGTCACCTAGTGCAG	8780 fluorescence intensity (a.u.)
CTCCCTCCCACTCCCCTTTTCGTAATTCCTTCCGCGCTTTCGGAGTCACCTAGTGCAG	8150 fluorescence intensity (a.u.)
CATGTGTGTTGGCGCTGCCAGTGTGTGGGTGGTGGTATATCGGAGTCACCTAGTGCAG	8760 fluorescence intensity (a.u.)
GGACTTCACCGCATCGGTCAACGGTAACCCTTATGCCAGCCGGAGTCACCTAGTGCAG	8490 fluorescence intensity (a.u.)
ACTACTCGATCGCCGGCGTCGCGGTCGCCATCCGCCGCATCGGAGTCACCTAGTGCAG	9290 fluorescence intensity (a.u.)
CGTTTTTGTTTCTGAGCATTTCTTCCTCAGTTCAGAGCTACGGAGTCACCTAGTGCAG	9320 fluorescence intensity (a.u.)
TCTCCGTGCATCCATCGATCCCGCGGCGACCACCGTTATCCGGAGTCACCTAGTGCAG	10200 fluorescence intensity (a.u.)
GTTTTTTTTTTTTGGCGCAGGGAGTGGTGGCGTGGTGTGTCGGAGTCACCTAGTGCAG	8170 fluorescence intensity (a.u.)

Source: paper PMC7819943, “Rice protein-binding microarrays: a tool to detect cis-acting elements near promoter regions in rice”
